# Results from the supplement of paper PMC12819154, “High-throughput peptide-centric local stability assay extends protein–ligand identification to membrane proteins, tissues and bacteria” (Nature Structural & Molecular Biology, 2025).
# Protein sequences, listed by entry. Tags and fused reporters are not part of them. Lines headed by an entry give the natural chain unless they say otherwise; changes in a name come on top.
# UniProt O43716: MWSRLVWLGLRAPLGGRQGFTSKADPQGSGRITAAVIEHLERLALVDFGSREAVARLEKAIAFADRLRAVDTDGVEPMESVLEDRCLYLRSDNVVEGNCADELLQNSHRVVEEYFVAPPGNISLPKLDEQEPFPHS
# UniProt O43296: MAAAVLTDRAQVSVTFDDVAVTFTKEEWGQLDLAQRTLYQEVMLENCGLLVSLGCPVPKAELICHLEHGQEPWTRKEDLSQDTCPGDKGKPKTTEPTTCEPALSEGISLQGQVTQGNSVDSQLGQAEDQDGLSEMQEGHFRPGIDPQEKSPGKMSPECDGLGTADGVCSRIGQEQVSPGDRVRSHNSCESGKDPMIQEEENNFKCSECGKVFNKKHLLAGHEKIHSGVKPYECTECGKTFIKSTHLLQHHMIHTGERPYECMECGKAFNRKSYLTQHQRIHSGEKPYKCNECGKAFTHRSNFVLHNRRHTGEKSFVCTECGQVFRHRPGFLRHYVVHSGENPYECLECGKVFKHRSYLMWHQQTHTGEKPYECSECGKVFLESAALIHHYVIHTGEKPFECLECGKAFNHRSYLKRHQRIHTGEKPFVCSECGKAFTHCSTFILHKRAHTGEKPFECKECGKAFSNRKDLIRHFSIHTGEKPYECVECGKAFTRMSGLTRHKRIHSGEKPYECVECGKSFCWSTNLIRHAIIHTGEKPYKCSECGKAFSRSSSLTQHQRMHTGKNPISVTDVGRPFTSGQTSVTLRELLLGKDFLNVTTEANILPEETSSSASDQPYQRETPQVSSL
# UniProt O43314: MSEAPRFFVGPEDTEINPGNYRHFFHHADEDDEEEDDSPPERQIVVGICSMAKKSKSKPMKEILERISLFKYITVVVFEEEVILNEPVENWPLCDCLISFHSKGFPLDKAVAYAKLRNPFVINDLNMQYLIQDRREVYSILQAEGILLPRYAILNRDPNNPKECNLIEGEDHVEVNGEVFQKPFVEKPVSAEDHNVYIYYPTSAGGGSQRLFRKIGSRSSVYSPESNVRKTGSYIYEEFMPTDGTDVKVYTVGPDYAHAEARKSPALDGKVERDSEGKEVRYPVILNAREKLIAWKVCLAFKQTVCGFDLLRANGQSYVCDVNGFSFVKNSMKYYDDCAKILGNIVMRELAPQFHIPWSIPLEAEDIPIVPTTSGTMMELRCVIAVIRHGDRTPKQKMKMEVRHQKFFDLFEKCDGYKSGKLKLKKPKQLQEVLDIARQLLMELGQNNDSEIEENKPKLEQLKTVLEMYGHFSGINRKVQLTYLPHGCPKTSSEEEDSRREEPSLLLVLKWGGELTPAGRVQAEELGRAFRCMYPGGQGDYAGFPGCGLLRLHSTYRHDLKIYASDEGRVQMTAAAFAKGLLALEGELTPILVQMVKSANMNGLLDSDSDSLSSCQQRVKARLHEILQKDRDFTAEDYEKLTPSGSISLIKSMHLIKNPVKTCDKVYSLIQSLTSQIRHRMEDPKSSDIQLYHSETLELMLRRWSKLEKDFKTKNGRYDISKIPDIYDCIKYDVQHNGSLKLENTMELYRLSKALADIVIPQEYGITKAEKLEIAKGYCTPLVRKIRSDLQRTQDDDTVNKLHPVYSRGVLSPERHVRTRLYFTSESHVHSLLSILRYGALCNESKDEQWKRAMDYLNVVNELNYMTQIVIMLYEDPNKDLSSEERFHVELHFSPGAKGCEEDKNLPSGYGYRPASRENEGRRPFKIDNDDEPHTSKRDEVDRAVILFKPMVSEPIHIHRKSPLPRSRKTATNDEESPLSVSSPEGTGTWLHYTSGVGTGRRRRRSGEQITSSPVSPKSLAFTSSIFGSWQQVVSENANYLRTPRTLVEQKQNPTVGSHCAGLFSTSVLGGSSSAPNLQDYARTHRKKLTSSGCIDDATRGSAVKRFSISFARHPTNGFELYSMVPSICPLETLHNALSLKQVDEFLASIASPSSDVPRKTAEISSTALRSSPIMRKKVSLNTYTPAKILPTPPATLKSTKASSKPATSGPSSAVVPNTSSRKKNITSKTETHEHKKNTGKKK
# UniProt O43175: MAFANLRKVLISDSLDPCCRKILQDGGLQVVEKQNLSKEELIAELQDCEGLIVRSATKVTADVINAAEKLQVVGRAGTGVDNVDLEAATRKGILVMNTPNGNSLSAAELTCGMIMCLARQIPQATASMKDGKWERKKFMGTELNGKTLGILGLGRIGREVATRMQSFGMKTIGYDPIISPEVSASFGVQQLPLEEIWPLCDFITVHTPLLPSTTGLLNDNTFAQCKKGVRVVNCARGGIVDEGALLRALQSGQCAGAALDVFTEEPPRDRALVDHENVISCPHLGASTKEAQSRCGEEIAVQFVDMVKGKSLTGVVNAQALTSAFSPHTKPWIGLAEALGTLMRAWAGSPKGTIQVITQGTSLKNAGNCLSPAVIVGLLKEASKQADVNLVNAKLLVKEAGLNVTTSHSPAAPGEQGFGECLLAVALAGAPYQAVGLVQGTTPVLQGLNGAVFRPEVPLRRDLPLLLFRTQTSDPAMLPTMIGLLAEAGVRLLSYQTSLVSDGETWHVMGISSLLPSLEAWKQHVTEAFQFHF
# UniProt O43674, whole entry: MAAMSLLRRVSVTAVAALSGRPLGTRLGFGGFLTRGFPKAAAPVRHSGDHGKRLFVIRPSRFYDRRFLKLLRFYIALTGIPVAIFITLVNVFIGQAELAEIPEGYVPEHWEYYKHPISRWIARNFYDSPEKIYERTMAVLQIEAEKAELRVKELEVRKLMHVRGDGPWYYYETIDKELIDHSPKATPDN
# UniProt O43752: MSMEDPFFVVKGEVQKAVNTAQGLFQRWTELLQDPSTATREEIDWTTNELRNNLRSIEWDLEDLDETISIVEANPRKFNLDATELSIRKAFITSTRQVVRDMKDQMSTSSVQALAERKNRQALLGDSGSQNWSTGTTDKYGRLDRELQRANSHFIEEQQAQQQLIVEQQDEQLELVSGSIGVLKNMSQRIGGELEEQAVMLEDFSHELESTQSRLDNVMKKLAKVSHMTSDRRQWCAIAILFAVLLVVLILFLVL
# UniProt O43566: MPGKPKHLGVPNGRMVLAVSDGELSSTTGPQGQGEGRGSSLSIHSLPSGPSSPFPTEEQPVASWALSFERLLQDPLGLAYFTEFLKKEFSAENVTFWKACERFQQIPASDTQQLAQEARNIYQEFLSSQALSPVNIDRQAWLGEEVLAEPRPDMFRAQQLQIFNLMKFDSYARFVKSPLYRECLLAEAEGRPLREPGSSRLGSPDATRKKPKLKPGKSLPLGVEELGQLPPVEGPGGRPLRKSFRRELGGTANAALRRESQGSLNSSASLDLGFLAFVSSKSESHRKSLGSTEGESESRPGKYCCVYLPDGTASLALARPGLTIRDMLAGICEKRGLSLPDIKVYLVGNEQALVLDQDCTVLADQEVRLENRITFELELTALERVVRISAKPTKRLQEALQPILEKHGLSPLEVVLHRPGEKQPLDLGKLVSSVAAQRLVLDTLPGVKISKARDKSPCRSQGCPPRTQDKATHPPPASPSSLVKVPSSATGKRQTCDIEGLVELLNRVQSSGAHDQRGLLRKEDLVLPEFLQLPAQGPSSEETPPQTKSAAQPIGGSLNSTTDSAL
# UniProt O43395: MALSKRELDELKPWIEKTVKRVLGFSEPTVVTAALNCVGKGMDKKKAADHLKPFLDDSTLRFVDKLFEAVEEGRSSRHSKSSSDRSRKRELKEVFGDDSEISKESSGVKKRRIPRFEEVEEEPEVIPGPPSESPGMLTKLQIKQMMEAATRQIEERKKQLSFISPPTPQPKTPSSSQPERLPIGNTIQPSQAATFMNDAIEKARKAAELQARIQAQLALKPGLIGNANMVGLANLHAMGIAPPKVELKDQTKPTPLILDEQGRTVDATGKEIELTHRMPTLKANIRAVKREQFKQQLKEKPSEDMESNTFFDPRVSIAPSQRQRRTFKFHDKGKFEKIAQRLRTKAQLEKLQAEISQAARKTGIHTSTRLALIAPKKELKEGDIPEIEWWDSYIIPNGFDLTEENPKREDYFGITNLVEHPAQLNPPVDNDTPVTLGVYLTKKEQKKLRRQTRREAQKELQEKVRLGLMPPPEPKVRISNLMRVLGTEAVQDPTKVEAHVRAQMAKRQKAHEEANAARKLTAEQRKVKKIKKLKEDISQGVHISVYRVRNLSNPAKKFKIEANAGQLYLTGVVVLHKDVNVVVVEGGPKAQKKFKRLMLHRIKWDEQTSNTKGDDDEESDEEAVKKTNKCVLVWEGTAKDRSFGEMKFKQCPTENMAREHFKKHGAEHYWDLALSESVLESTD
# UniProt O75140: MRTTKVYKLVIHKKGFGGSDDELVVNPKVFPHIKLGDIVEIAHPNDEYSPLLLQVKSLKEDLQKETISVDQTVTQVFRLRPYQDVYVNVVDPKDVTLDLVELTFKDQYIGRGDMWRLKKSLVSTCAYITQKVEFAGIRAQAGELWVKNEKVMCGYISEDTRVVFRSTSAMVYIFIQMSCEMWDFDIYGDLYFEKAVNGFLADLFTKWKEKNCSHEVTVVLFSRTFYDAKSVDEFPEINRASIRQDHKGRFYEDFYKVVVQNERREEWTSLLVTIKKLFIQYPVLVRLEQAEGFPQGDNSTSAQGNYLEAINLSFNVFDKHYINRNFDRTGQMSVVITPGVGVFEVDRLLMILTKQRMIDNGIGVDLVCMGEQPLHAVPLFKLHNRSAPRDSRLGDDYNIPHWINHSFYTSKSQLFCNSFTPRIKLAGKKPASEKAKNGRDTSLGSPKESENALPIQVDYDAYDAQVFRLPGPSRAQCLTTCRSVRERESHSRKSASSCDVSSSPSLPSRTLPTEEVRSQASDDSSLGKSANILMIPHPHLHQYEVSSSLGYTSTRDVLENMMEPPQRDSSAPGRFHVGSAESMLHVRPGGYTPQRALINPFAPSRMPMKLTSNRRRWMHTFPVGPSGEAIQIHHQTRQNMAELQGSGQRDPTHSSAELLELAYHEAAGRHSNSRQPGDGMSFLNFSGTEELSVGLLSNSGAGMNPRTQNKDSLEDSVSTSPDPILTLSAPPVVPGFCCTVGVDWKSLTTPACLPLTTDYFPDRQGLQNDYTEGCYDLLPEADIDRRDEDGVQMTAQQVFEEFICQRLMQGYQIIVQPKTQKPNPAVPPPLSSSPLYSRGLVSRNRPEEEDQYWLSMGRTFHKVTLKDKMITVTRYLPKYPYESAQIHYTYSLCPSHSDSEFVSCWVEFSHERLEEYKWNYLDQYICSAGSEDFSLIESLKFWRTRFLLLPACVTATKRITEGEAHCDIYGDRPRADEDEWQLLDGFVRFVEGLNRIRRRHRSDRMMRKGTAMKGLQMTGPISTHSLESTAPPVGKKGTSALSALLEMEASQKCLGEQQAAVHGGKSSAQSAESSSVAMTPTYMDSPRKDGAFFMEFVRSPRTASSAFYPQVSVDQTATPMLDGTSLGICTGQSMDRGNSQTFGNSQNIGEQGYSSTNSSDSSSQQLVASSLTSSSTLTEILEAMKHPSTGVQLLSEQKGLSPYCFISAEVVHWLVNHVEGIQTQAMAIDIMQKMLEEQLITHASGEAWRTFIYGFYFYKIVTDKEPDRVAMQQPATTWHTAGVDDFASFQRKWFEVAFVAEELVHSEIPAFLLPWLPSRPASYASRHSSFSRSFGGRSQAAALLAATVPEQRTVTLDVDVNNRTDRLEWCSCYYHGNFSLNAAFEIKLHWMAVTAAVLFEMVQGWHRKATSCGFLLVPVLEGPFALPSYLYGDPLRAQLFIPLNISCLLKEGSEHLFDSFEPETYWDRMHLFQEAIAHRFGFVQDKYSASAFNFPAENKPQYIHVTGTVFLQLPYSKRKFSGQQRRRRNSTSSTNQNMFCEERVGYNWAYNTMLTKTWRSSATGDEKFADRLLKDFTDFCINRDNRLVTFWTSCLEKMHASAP
# Some of the results follow. Most values lie at the level of the controls, where differences are scatter.
# Compound: CN[C@@H]1C[C@H]2O[C@@](C)([C@@H]1OC)n1c3ccccc3c3c4c(c5c6ccccc6n2c5c31)C(=O)NC4 [staurosporine]
# Assay: log2 fold change of tryptic peptide abundance, ligand vs vehicle (limited proteolysis) (log2 ratio); higher = more trypsin-susceptible (destabilized)
# Settings: ligand concentration: 20 uM; sample: K562 cleared lysate; digestion: 4 min, 22 C (HT-PELSA RT4min, Orbitrap Astral)
row,Target,log2 fold change
1,"GATC (peptide sequence: ITAAVIEHLER, peptide start residue: 32) (UniProt O43716)",0.474
2,"UniProt O43296 (peptide sequence: HFSIHTGEKPYECVECGK, peptide start residue: 466)",-0.164
3,"UniProt O43314 (peptide sequence: VYTVGPDYAHAEAR, peptide start residue: 249)",0.229
4,"PHGDH (peptide sequence: KVLISDSLDPCCRK, peptide start residue: 8) (UniProt O43175)",-0.229
5,"NDUFB5 (peptide sequence: LGFGGFLTR, peptide start residue: 27) (UniProt O43674)",0.133
6,"STX6 (peptide sequence: DMKDQMSTSSVQALAER, peptide start residue: 101) (UniProt O43752)",-3.67
7,"RGS14 (peptide sequence: HGLSPLEVVLHRPGEK, peptide start residue: 407) (UniProt O43566)",0.37
8,"PRPF3 (peptide sequence: IEANAGQLYLTGVVVLHK, peptide start residue: 560) (UniProt O43395)",-0.353
9,"DEPDC5 (peptide sequence: CLGEQQAAVHGGK, peptide start residue: 1053) (UniProt O75140)",-0.615

# A stretch from further up, for reference:
row,Target,log2 fold change
6,"STX6 (peptide sequence: DMKDQMSTSSVQALAER, peptide start residue: 101) (UniProt O43752)",-3.67
7,"RGS14 (peptide sequence: HGLSPLEVVLHRPGEK, peptide start residue: 407) (UniProt O43566)",0.37
